Measurements published in PMC11496845, “Preparation, characterization, and in vitro cytogenotoxic evaluation of a novel dimenhydrinate-β-cyclodextrin inclusion complex” (Biomolecules and Biomedicine, 2024).
Like-named read-outs stand apart in the source and are kept apart here.

Assays:
rat primary hepatocytes = details: cited from earlier work
[1] = DMH with β-CD
PBMCs = assay: Alkaline comet assay, tail intensity; details: 3 h
Procedure: Blood was collected by venipuncture into heparinized vacutainers (BD Vacutainer Systems, Plymouth, UK), stored at room temperature, protected from light, and processed within 2 h. PBMCs were isolated by density gradient centrifugation (400 × g, 30 min) with separation medium (Histopaque® - 1077). After isolation, PBMCs were stained with Trypan blue and counted using a hemocytometer.
The comet assay is a sensitive technique for measuring DNA damage at the level of the individual eukaryotic cell. It is based upon the fact that denatured cleaved DNA fragments, or damaged DNA, migrate out of the cell at a different rate during electrophoresis than undamaged DNA [32]. Damaged DNA creates a “comet tail,” while the undamaged DNA remains within the cell membrane creating the “comet head.” The Comet assay is most commonly run under alkaline conditions to detect single and double-stranded DNA breaks. […]
Prior to the fluorescent microscope analysis (U-MNU2; Olympus BX51, Tokyo, Japan), slides were rehydrated and stained with DAPI (1 µg/mL). DNA damage in treated cells was evaluated using Comet Assay IV software (Instem LSS Ltd., Staffordshire, UK), by measuring tail intensity (TI%), the percent of DNA in the tail of comets. For each concentration, as well as for positive and negative controls, at least 200 comets were analyzed. […]

[2] = cited from earlier work

CN(C)CCOC(c1ccccc1)c1ccccc1.Cn1c(=O)c2[nH]c(Cl)nc2n(C)c1=O [DMH, 2-benzhydryloxy-N,N-dimethylethanamine; 8-chloro-1,3-dimethyl-7H-purine-2,6-dione]
DNA strand breaks (rat primary hepatocytes): did not cause DNA strand breaks | Ks, stability constant [1]: 171.10 M⁻¹ | Ks, stability constant ([1]; Equation (1)): 171.10 M∘1 | Genotoxic effects in alkaline comet assay (PBMCs): did not show genotoxic effects | Plasma concentration considered toxic [2]: 600 ng/mL | Plasma concentration ([2]; dose of 25 mg): 14.5 ng/mL | Peak plasma concentration (Cmax) ([2]; oral administration of 50 mg): 72.6 ng/mL
